Test results published in publication PMC5717399.
No constants are given. Whether binding was seen depends on the method and setting. For part of these data: Binding seen in cells or lysates may run through a third protein. Some entries that bind do so weakly or less than the wild type. Each block holds one substance with its values, some of them ahead of it.

The chains behind the UniProt entries cited, without tags or fusion partners. Where a name states a change or a piece, a line headed by the entry shows the natural chain unless it says otherwise. A line that says so, or that is headed by a name, gives the form on record, which may keep a tag or linker.
UniProt Q9NWU2: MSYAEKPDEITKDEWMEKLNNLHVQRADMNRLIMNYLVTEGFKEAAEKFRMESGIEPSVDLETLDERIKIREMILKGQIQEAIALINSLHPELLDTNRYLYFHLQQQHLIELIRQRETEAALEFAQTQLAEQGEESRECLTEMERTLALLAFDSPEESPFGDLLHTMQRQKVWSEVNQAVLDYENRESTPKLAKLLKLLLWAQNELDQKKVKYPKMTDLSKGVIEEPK
Flag-Twa1-ΔCRA (Q9NWU2, form named): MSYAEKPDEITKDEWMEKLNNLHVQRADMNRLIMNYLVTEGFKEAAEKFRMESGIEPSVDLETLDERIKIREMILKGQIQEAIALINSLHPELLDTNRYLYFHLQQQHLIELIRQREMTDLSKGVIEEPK
UniProt P35222: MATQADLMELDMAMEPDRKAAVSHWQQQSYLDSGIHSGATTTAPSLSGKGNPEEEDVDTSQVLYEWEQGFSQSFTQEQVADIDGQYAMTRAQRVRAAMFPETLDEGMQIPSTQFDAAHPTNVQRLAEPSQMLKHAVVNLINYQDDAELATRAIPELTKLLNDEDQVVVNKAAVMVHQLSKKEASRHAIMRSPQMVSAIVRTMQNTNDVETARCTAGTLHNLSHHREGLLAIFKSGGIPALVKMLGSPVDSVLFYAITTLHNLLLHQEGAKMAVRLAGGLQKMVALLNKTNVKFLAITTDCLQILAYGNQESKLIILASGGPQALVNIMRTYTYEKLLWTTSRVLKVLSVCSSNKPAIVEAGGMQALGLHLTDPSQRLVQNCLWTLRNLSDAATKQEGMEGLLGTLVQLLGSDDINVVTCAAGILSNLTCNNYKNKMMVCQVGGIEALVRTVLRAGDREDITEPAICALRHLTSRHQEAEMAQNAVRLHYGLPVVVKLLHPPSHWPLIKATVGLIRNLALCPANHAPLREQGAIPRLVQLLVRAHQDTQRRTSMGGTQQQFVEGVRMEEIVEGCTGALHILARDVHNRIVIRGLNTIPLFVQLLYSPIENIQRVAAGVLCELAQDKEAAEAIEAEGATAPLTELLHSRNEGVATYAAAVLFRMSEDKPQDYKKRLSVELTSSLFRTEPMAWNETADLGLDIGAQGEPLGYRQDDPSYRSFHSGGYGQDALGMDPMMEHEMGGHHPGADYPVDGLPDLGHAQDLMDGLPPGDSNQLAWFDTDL
UniProt P49841: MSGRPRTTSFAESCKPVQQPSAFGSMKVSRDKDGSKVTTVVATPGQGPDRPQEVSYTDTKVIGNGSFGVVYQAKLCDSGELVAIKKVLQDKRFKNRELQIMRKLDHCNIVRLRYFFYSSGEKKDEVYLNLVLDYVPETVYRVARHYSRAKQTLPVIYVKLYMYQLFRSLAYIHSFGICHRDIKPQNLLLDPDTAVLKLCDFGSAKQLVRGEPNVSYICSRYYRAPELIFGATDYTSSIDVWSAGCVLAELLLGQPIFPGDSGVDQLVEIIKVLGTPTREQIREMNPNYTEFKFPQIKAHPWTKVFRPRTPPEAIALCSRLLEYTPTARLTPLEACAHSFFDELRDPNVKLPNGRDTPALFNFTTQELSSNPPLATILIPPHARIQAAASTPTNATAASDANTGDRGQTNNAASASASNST
UniProt Q9NQB0: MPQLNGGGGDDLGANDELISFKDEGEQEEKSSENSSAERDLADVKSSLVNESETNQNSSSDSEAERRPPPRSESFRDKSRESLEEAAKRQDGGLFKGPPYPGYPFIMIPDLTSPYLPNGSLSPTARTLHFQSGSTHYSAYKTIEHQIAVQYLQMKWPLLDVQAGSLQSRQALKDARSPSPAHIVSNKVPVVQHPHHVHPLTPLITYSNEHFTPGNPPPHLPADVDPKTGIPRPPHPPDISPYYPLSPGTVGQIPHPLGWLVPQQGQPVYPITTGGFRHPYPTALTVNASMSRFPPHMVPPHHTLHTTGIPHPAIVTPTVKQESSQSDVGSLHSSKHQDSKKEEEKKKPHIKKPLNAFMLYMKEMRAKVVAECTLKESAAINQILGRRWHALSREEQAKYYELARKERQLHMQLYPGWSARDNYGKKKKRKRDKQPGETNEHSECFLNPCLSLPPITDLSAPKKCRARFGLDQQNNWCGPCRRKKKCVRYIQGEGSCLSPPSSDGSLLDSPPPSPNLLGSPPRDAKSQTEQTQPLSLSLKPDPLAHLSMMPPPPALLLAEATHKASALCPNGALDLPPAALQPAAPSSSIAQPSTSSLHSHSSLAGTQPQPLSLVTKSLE

Key:
[1] = target: endogenous Twa1 (human (endogenous in HEK-293)) (UniProt Q9NWU2); experiment: co-IP; lysates of HEK-293 cells (transfected or not; Wnt3a-CM or Ctr-CM; Twa1 knock-down or knockout in some panels) incubated with the indicated antibodies at 4 °C overnight, Protein A/G Sepharose beads, western blotting
Flag-Twa1 (human) = Flag-Twa1 (human) (UniProt Q9NWU2); experiment: as above
[2] = target: endogenous Twa1 (human (endogenous in HEK-293)) (UniProt Q9NWU2); experiment: co-IP; nuclear fractions of HEK-293 cells treated with Wnt3a-CM; in Figure 5F anti-Myc antibody, increasing amounts of HA-TCF4 plasmid
Myc-Twa1 (human) = Myc-Twa1 (human) (UniProt Q9NWU2); experiment: co-IP; sequential immunoprecipitation: anti-Flag antibody, elution with Flag peptide, then anti-Myc antibody or control IgG; lysates of HEK-293 cells transfected with HA-GSK3β, Myc-Twa1 and Flag-Axin
GST-Twa1-ΔCRA (human) = GST-Twa1-ΔCRA (human) (UniProt Q9NWU2); experiment: pull-down; GST pull-down: purified proteins incubated in 20 mM Tris pH 8.0, 150 mM NaCl, 0.5% NP-40, 5 mM EGTA, 1.5 mM EDTA at 4 °C for 4 h, then glutathione-agarose beads for 2 h; western blotting; both purified
Flag-Twa1-ΔCRA (human) = Flag-Twa1-ΔCRA (human) (UniProt Q9NWU2); experiment: co-IP; lysates of HEK-293 cells (transfected or not; Wnt3a-CM or Ctr-CM; Twa1 knock-down or knockout in some panels) incubated with the indicated antibodies at 4 °C overnight, Protein A/G Sepharose beads, western blotting

binding [1]: binds
binding (Flag-Twa1 (human)): binds
binding [2]: binds
Substance: endogenous β-catenin (from UniProt P35222 1-781)

binding (Myc-Twa1 (human)): binds
binding (Flag-Twa1 (human)): binds
Substance: HA-GSK3β (from UniProt P49841 1-420) (enzyme)

Further lines, the substance ahead of its results:

Substance: endogenous TCF4 (from UniProt Q9NQB0 1-619)
binding (Flag-Twa1 (human)): no binding

Substance: His-β-catenin (from UniProt P35222 1-781)
binding (GST-Twa1-ΔCRA (human)): no binding

Substance: β-catenin (co-IP of Figure 3B) (from UniProt P35222 1-781)
binding (Flag-Twa1-ΔCRA (human)): no binding
binding (Flag-Twa1 (human)): binds
